Reference: patent US8435987B2, “Pyrazolo-pyridinone and pyrazolo-pyrazinone compounds as P38 modulators and methods of use thereof” (Amgen Inc., priority 2007, dated 2013)
Some of these results come from one statement about several compounds together.

Chains of the proteins cited; added tags and fusions are not shown.
UniProt Q16539, whole entry: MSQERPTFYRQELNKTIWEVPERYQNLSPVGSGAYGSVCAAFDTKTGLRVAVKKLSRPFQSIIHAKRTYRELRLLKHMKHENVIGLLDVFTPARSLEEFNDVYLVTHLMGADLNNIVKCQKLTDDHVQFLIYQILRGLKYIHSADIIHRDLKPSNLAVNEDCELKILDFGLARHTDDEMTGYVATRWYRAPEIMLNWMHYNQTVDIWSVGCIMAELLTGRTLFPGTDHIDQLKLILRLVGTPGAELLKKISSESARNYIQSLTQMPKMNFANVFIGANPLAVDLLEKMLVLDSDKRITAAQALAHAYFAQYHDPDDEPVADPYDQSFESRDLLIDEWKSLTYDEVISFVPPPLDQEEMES

Target: recombinant human p38α (Homo sapiens, UniProt Q16539)
Assay: Purified and activated recombinant human p38α HTRF assay
Type: biochemical
Settings: read-out: IC50 in the human p38-alpha enzyme assay
Description: Purified and Activated Recombinant Human p38α Assay
• Kinase Reaction Buffer: Kinase reaction buffer for p38α HTRF assays consists of 50 mM Tris-pH 7.5, 5 mM MgCl2, 0.1 mg/mL BSA, 100 μM Na3VO4 and 0.5 mM DTT. • HTRF Detection Buffer: HTRF detection buffer contains 100 mM HEPES-pH 7.5, 100 mM NaCl, 0.1% BSA, 0.05% Tween-20, and 10 mM EDTA. • Serial Dilution of Compounds: Compounds were dissolved in 100% DMSO and serially diluted (3 fold, 10 point) in a polypropylene 96-well microtiter plate (drug plate). The final starting concentration of compounds in the p38a enzymatic assays was 1 μM. Columns 6 and 12 (HI controls and LO controls respectively) in the drug plate were reserved as controls and contained only DMSO. • Kinase Reaction: The p38α kinase reactions were carried out in a polypropylene 96-well black round bottom assay plate in total volume of 30 μL kinase reaction buffer. Appropriate concentration of purified and activated enzyme (recombinant human) was mixed with indicated concentration of ATP and 100 nM GST-ATF2-Avitag, in the presence or absence (HI control) of Compound. See table below for actual concentrations. In the absence of substrate, the background was measured as LO control. The reaction was allowed to incubate for 1 hour at RT. • Assay Reagent Concentrations: The final reagent concentrations were 1 nM p38α and 50 μM ATP. […] After 60 minutes incubation at room temperature, the assay plate was read in a Discovery Plate Reader. The wells were excited with coherent 320 nm light and the ratio of delayed ([…] post excitation) emissions at […] (native europium fluorescence) and 665 nm (europium fluorescence transferred to allophycocyanin—an index of substrate phosphorylation) was determined (Park et al, 1999). • Data Analysis: The proportion of substrate phosphorylated in the kinase reaction in the presence of compound compared with that phosphorylated in the presence of DMSO vehicle alone (HI control) was calculated using the formula: % control (POC)=(compound−average LO)/(average HI−average LO)*100. Data (consisting of POC and inhibitor concentration in μM) was fitted to a 4-parameter equation (y=A+((B−A)/(1+((x/C)AD))), where A is the minimum y (POC) value, B is the maximum y (POC), C is the x (compound concentration) at the point of inflection and D is the slope factor, using a Levenburg-Marquardt non-linear regression algorithm.
The inhibition constant (Ki) of the inhibitor was estimated from the IC50 (compound concentration at the point of inflection C) using the Cheng-Prussof equation: Ki=IC50/(1+S/Km), where S is the ATP substrate concentration, and Km is the Michaelis constant for ATP as determined experimentally. All results were expressed as the mean± the standard error of the mean. Data acquisition and non-linear regression algorithms were performed using Activity Base v5.2 and XL-fit software v4.1 respectively. All data was archived using Activity Base v5.2 software.

| SMILES | IC50 [nM] |
| --- | --- |
| Cc1ccc2c(NC3CC3)noc2c1-c1cc2cnn(-c3ccc(F)cc3F)c2n(C)c1=O [Example 8, 5-(3-(cyclopropylamino)-6-methyl-1,2-benzisoxazol-7-yl)-1-(2,4-difluorophenyl)-7-methyl-1,7-dihydro-6H-pyrazolo[3,4-b]pyridin-6-one] | ≤ 100 |
| CCn1c(=O)c(-c2c(C)ccc3c(NC4CC4)noc23)cc2cnn(-c3ccccc3F)c21 [Example 7, 5-(3-(cyclopropylamino)-6-methyl-1,2-benzisoxazol-7-yl)-7-ethyl-1-(2-fluorophenyl)-1,7-dihydro-6H-pyrazolo[3,4-b]pyridin-6-one] | ≤ 100 |
| Cc1ccc2c(NC3CC3)noc2c1-c1cc2cnn(-c3cc(F)ccc3F)c2n(C)c1=O [Example 6, 5-(3-(cyclopropylamino)-6-methyl-1,2-benzisoxazol-7-yl)-1-(2,5-difluorophenyl)-7-methyl-1,7-dihydro-6H-pyrazolo[3,4-b]pyridin-6-one] | ≤ 100 |
| CNc1noc2c(-c3cc4cnn(-c5c(F)cccc5F)c4n(C)c3=O)c(C)ccc12 [Example 5, 1-(2,6-difluorophenyl)-7-methyl-5-(6-methyl-3-(methylamino)-1,2-benzisoxazol-7-yl)-1,7-dihydro-6H-pyrazolo[3,4-b]pyridin-6-one] | ≤ 100 |
| Cc1ccc2c(NC3CC3)noc2c1-c1cc2cnn(-c3c(F)cccc3F)c2n(C)c1=O [Example 1, 5-(3-(cyclopropylamino)-6-methylbenzo[d]isoxazol-7-yl)-1-(2,6-difluorophenyl)-7-methyl-1H-pyrazolo[3,4-b]pyridin-6(7H)-one] | ≤ 100 |
| CNc1noc2c(-c3nc4cnn(-c5ccc(F)cc5F)c4n(C)c3=O)c(C)ccc12 [Example 2, 1-(2,4-difluorophenyl)-7-methyl-5-(6-methyl-3-(methylamino)benzo[d]isoxazol-7-yl)-1H-pyrazolo[4,3-b]pyrazin-6(7H)-one] | ≤ 100 |
